By Kd is commonly meant a measure of binding affinity in units of concentration. Higher therefore signals lower affinity.

This experiment has as its target T1, soluble CD4 (UniProt P01730 26-396).
T1 construct: Called only 'soluble CD4'
Nature of the experiment: surface plasmon resonance. On the technique in general: In SPR one partner is held on a chip, and binding of the other changes the refractive index at the surface.

B1: 92UG037.8-gp140-Fd (other)
chain: AENLWVTVYYGVPVWKDAETTLFCASDAKAYDTEVHNVWATHACVPTDPNPQEIYMENVTEEFNMWKNNMVEQMHTDIISLWDQSLKPCVQLTPLCVTLDCSYNITNNITNSITNSSVNMREEIKNCSFNMTTELRDKNRKVYSLFYKLDVVQINNGNNSSNLYRLINCNTSALTQACPKVTFEPIPIRYCAPAGYAILKCNDKEFNGTGLCKNVSTVQCTHGIRPVVSTQLLLNGSLAEGKVMIRSENITNNVKNIIVQLNETVTINCTRPNNNTRKSVRIGPGQTFYATGDIIGDIRQAHCNVSGSQWNRALHQVVGQLREYWNTTIIFKNSSGGDLEITTHSFNCGGEFFYCNTSGLFNSNWTHNDTASMKPNDTITLPCRIKQIINMWQRVGQAIYAPPIQGVIRCESNITGLILTRDGGGNINESQIFRPGGGDMRDNWRSELYKYKVVRIEPLGVAPTKAKRRVVEREKRAVVELGAVFIGFLGTAGSTMGAASITLTVQVRKLLSGIVQQQSNLLRAIEAQQHLLKLTVWGIKQLQARVLAVERYLRDQQLLGIWGCSGKLICTTNVPWNSSWSNKSEREIWENMTWLQWDKEISNYTHIIYELIEESQKQQEKNEQELLELDKWANLWNWFDISNWLWYIKEFSRIEGRGSGGYIPEAPRDGQAYVRKDGEWVLLSTFLGHHHHHH
notes: Homotrimer made in T. ni (High 5) insect cells; The leader of the insect-cell construct may differ; also called 92UG037.8 (clade A) gp140 trimer; clade A trimer
As to B1, binding was put at a Kd of 1.9 nM.

The values are drawn from US20180207259A1 (BETH ISRAEL DEACONESS MEDICAL CENTER, published 2018).
